Data as given in PubChem BioAssay AID504467 (National Center for Advancing Translational Sciences (NCATS), 2011).
Among all 330,000 compounds or so, about 7,700 (2.3%) were called active. This list was built around the results that the source calls inconclusive (neither active nor inactive); the mix of calls is not that of the screen. The call rests on the fitted dose curve; in most records, active means well fitted inhibition curve with a large enough effect; inconclusive means small, poorly fitted or top-dose-only effect, or effect the other way; inactive means flat fitted curve, though single readings scatter. Potencies beside an inconclusive call are fits to weak or partial responses and may not hold up.

Experiment: qHTS screen for small molecules that inhibit ELG1-dependent DNA repair in human embryonic kidney (HEK293T) cells expressing luciferase-tagged ELG1; further: nearly all actives have a fitted effect of over 55% in size
Settings: HEK293T ELG1-luciferase reporter, luminescence, 16 h, DNA damage induced by 5-fluorouridine; activity change, negative = inhibition: at 46.1 µM (top of the series)
In short: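 Quantitative HTS, concentration-response format. 2,000 cells/well co-treated with 5-fluorouridine and compound, 16 hr in 5% CO2 at 37 °C; ONE-Glo luminescence read after 30 min.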
On the % scale 0 is the no-effect control and ±100 the full control effect; potency means the concentration at half of the fitted maximal effect.

| SMILES | Potency | activity change, negative = inhibition |
| --- | --- | --- |
| COC(=O)c1[nH]c2ccccc2c1NC(=O)CNC1CCCCC1 | inconclusive: 10.3 µM [inhibitor, partial curve] | – |
| Clc1cccc(N/N=C/c2ccncc2)c1 | inconclusive: 20.6 µM [activator, single point] | – |
| COc1ccc(C(C)=O)cc1CC(=O)Nc1ccccc1-c1ccccc1 | active: 11.6 µM | – |
| CCOC(=O)C1(O)CC(C)=NN1C(=O)c1cccc(Cl)c1 (stereo not drawn) | – | inactive: 14.1% |
| COc1ccc(CNC(=O)c2ccncc2)cc1 | – | inactive: -6.93% |
| c1ccc(Cc2nnc3n2N=C(c2ccccc2)CS3)cc1 | inconclusive: 20.6 µM [inhibitor, single point] | – |
| Cc1cc(C)c2cc(C#N)c(NCCCNC(=O)CCC(=O)O)nc2c1 | – | inactive: 8.93% |
| CCOC(=O)c1nc(Nc2ccccc2CC)c2ccccc2n1 | – | inactive: 0% |
| CC1S/C(=N/N=C/c2ccco2)N(Cc2ccccc2)C1=O (stereo not drawn) | inconclusive: 20.6 µM [activator, partial curve] | – |
| CCC(C)(C)n1nnnc1CN(Cc1ccco1)Cc1cc2cc3c(cc2[nH]c1=O)OCO3 | inconclusive: 35.5 µM [inhibitor, single point] | – |
| CSc1nc(N)nc2c1ncn2CC(=O)Nc1ccc(C)c(C)c1 | active: 6.51 µM | – |
| FC(F)(F)c1ccc(NC(=S)NCc2ccccc2)cc1 | – | inactive: -13.7% |
| CN1CN(C)c2ccc([N+](=O)[O-])c3cccc1c23 | inconclusive: 0.92 µM [inhibitor, partial curve, poor fit] | – |
| Cc1ccc(/C=N/NC(=O)c2cccnc2)s1 | – | inactive: 11.2% |
| CC/C(=N\Nc1ccc([N+](=O)[O-])cc1[N+](=O)[O-])c1ccc(O)cc1 | inconclusive: 23.1 µM [inhibitor, single point] | – |
| COc1ccc2sc3c(=O)[nH]c4ccccc4c3c2c1 | active: 0.82 µM | – |
| CCCCn1c(N)c(N(CC(C)C)C(=O)COC(=O)Cc2cccc(OC)c2)c(=O)[nH]c1=O | – | inactive: 2.35% |
| O=C(CSCc1ccccc1Br)N/N=C/c1ccc(OCC(=O)N2CCCCC2)cc1 | active: 25.9 µM | – |
| CCC1CCCCN1C(=O)CN1C(=O)c2ccccc2S1(=O)=O (stereo not drawn) | – | inactive: 0.407% |
| CCOC(=O)c1ccc(NS(=O)(=O)N2CCCCCC2)cc1 | inconclusive: 25.9 µM [activator, single point] | – |
| O=C(C1COc2ccccc2O1)N1CCN(c2ccccc2O)CC1 (stereo not drawn) | inconclusive: 20 µM [inhibitor, single point] | – |
| CCC(CCC(=O)Nc1ccn(-c2ccccc2)n1)C(=O)O (stereo not drawn) | inconclusive: 29.1 µM [activator, partial curve, poor fit] | – |
| COc1cccc(NS(=O)(=O)NC(=O)c2cn(C)c3ccccc23)c1 | inconclusive: 29.1 µM [activator, single point] | – |
| CCn1c(=O)c(C(=O)NCc2ccc(OC)cc2)c(O)c2ccccc21 | – | inactive: -8.69% |

Individual results from the entries so far:
Potency with `CSc1nc(N)nc2c1ncn2CC(=O)Nc1ccc(C)c(C)c1` is entered as active: 6.51 µM
Potency with `CCC(CCC(=O)Nc1ccn(-c2ccccc2)n1)C(=O)O` (stereo not drawn) is entered as inconclusive: 29.1 µM [activator, partial curve, poor fit]

Further structures:

| SMILES | Potency | activity change, negative = inhibition |
| --- | --- | --- |
| CN(C)C(=S)SCC(=O)Nc1cccc(C(F)(F)F)c1 | inconclusive: 18.4 µM [activator, partial curve, poor fit] | – |
| NC(=O)C1CCN(C(=O)c2cc3c(s2)CCCC3)CC1 | inconclusive: 14.6 µM [activator, partial curve] | – |
| CCOC(=O)CN1c2ccccc2NC(=O)CC1C (stereo not drawn) | inconclusive: 10.3 µM [activator, partial curve, poor fit] | – |
| COc1cc(NC(=O)CSc2ccc(-c3ccccn3)nn2)cc(OC)c1 | – | inactive: 2.18% |
| CC(C)(C)N(Cc1ccccc1)C(=O)CN1C(=O)c2ccccc2C1=O | inconclusive: 16.4 µM [activator, partial curve] | – |
| Cn1nnnc1SCC(=O)Nc1nc2ccccc2s1 | inconclusive: 20.6 µM [activator, partial curve] | – |
| CCOc1ccccc1NC(=O)c1sc2nc(C)nc(N3CCOCC3)c2c1C | – | inactive: 3.21% |
| Cc1csc(SCC(=O)Nc2cc([N+](=O)[O-])ccc2F)n1 | – | inactive: -0.324% |
| COc1cccc(NC(=S)NN=C2CCC(C(C)(C)C)CC2)c1 (stereo not drawn) | – | inactive: 10.4% |
| O=C(/C=C/c1cccs1)Nc1ccncc1 | inconclusive: 20.6 µM [activator, single point] | – |
| Cn1c(SCC(=O)Nc2ccc(C(N)=O)cc2)nnc1-c1cccs1 | – | inactive: 18.1% |
| CCOc1ccc(/C=C/C2=Cc3c(sc(NC(=O)CSc4n[nH]c(N)n4)c3C#N)C(C)(C)C2)cc1 | inconclusive: 7.31 µM [inhibitor, partial curve, poor fit] | – |
| CCOc1ccc(-n2c(SCC)nc3c(c2=O)SCC3)cc1 | – | inactive: 2.76% |
| CCC(=O)N1CCN(c2nc(-c3ccccc3)c3c(c2C#N)CCCC3)CC1 | inconclusive: 29.1 µM [inhibitor, single point] | – |
| O=C(OCC(=O)c1c[nH]c2ccccc12)c1cc(Br)ccc1O | inconclusive: 29.1 µM [activator, partial curve, poor fit] | – |
| O=C(Nc1ccc(F)c(F)c1)c1ccco1 | inconclusive: 29.1 µM [activator, single point] | – |
| CC(=O)c1ccc(S(=O)(=O)Nc2ccc(-c3ccc4nnc(C)n4n3)cc2)cc1 | inconclusive: 23.1 µM [activator, partial curve] | – |
| O=C(Cn1cnc2c(cnn2-c2ccccc2)c1=O)OCc1ccccc1 | inconclusive: 18.4 µM [activator, partial curve] | – |
| Cc1ccc(S(=O)(=O)NCC(=O)OC(C)C(=O)NC(=O)NC2CCCCC2)cc1C (stereo not drawn) | – | inactive: 17.1% |
| Cc1ccc(CNC(=O)c2ccc(CS(=O)Cc3cccc(Cl)c3)o2)cc1 (stereo not drawn) | inconclusive: 20.6 µM [inhibitor, partial curve, poor fit] | – |
| Cc1cc(N2CCN(C)CC2)nc2ccc(NC(=O)CCC(=O)NCCc3ccc(Cl)cc3)cc12 | – | inactive: -4.28% |
| CCOC(=O)c1sc(NC(=O)c2ccoc2C)c(C(N)=O)c1C | active: 8.2 µM | – |
| Cc1ccc(Nc2c(-c3ccccn3)nc3cc(C)ccn23)cc1 | inconclusive: 23.1 µM [activator, single point] | – |
| COc1ccc(CCNC(=O)CSc2cn(Cc3cccc(C)c3)c3ccccc23)cc1OC | inconclusive: 29.1 µM [inhibitor, partial curve, poor fit] | – |
